# Reference: article PMC5996148
# Where “and” joins values, the source holds several entries; their conditions need not be identical. Equal values may be shown once. The list shows a part of the results.
# Legend:
# Assay in all cases: protein microarray (ProtoArray v5.0), streptavidin-Alexa Fluor 647
# Conditions in all cases: 3'-biotin; 20 mM Tris (pH 7.5), 5 mM MgCl2, 100 mM KCl, 0.1% Tween-20, A/T-rich and random oligonucleotide blockers; temperature not stated; high values mean tight binding
# M6PRBP1 (human) = test system: M6PRBP1 (human)
# MAD2L1 (human) = test system: MAD2L1 (human)
# MAEA (human) = test system: MAEA (human)
# MAG (human) = test system: MAG (human)
# MAGEA4 (human) = test system: MAGEA4 (human)
# MAL2 (human) = test system: MAL2 (human)
# MALL (human) = test system: MALL (human)
# MAN2C1 (human) = test system: MAN2C1 (human)
# MANBA (human) = test system: MANBA (human)
# MANSC1 (human) = test system: MANSC1 (human)
sequence,measurement,setting,value
GGGAGGCTGAGGCAGG [G4-1 biotinylated (PQS2)],binding signal,M6PRBP1 (human),-0.278 z-score
same,binding signal,MAD2L1 (human),-0.278 z-score
same,binding signal,MAEA (human),-0.33 z-score
same,binding signal,MAG (human),-0.331 z-score
same,binding signal,MAGEA4 (human),-0.335 z-score
same,binding signal,MAL2 (human),-0.252 z-score
same,binding signal,MALL (human),-0.334 z-score
same,binding signal,MAN2C1 (human),-0.331 z-score and -0.33 z-score
same,binding signal,MANBA (human),-0.259 z-score
same,binding signal,MANSC1 (human),-0.338 z-score

# In another format: results already given
sequence | measurement | setting | value
GGGAGGCTGAGGCAGG [G4-1 biotinylated (PQS2)] | binding signal | MAGEA4 (human) | -0.335 z-score
same | binding signal | MALL (human) | -0.334 z-score
